{"source": "patent US7026296B2", "about": "“Methods of treating dry eye disorders” (Alcon, Inc., priority 2002, dated 2006)", "key": {"[1]": {"tested_on": "IL-8 production from CEPI-17 cells", "experiment": "Inhibition of hyperosmolarity-induced IL-8 production from human corneal epithelial cells in vitro", "assay_type": "cell-based", "conditions": "at 100 nM, hypertonic KGM-HC 6 hours", "method": "(§1) Inhibition of Hyperosmolarity-Induced Cytokine Production from Human Corneal Epithelial Cells in vitro.\n(§2) The ocular tear film in dry eye is abnormally hyperosmolar, which is irritating to ocular surface cells. Treatment of human conjunctival epithelial cells with a hypertonic media elicits the production of pro-inflammatory cytokines. A selective JNK inhibitor, anthra[1,9-cd]pyrazol-6(2H)-one, was evaluated for inhibition of hyperosmolarity-induced cytokine secretion from the transformed human corneal epithelial cell line, CEPI-17.CEPI-17 cells were grown in complete isotonic Keratinocyte Growth Medium (iso KGM) and plated in 48-well plates in iso KGM without hydrocortisone (iso KGM-HC). When the cells reached confluence, they were pre-treated for 1 hour with the compound at the indicated concentration in iso KGM-HC. The cells were then stimulated by hypertonic KGM-HC for 6 hours (additional 80 mM NaCl added in iso KGM-HC) in the presence of the compound. Aliquots of the supernatants were assayed for IL-6,IL-8 by ELISA. Cytokine release was normalized by the amount of double stranded DNA (dsDNA) extracted from the cells. Percent inhibition of cytokine production was calculated by comparison with cytokine levels in vehicle-treated cells."}, "[2]": {"tested_on": "IL-6 production from CEPI-17 cells", "experiment": "Inhibition of hyperosmolarity-induced IL-6 production from human corneal epithelial cells in vitro", "assay_type": "cell-based", "conditions": "at 100 nM, hypertonic KGM-HC 6 hours", "method": "as §1, §2"}}, "note": "At least one compound was matched to its structure with a doubt left."}
{"smiles": "C[C@@H]1C[C@H]2[C@@H]3CCC4=CC(=O)C=C[C@]4(C)[C@@]3(F)[C@@H](O)C[C@]2(C)[C@@]1(O)C(=O)CO", "note": "[Dexamethasone]", "values": [{"measurement": "inhibition of IL-8 secretion", "setting": "[1]", "value": "significantly inhibited"}, {"measurement": "inhibition of IL-6 secretion", "setting": "[2]", "value": "significantly inhibited"}]}
